Data reported in PubChem BioAssay AID330 (DTP/NCI, 2004).
The list does not hold the whole screen: it is rich in T/C values a quarter to a half above the control, in often repeated tests (any T/C) and in doses without a T/C. Further doses and runs are listed elsewhere. T/C: endpoint of the treated group in % of that of the vehicle group. Some doses have a count of surviving animals in place of a T/C: the source files T/C as zero there, which appears to mark a toxic dose or a test without result, not a measured value. Some doses without a T/C left all or most animals alive at the check, yet need not have been tolerated: the source hardly ever lists a survival T/C far under the control, and the zero likely stands for such cases as well. Counts of survivors are from the toxicity check (mostly the fifth day) where no day follows; animals may have died later. Schedule codes are those of the source, read here as Q, the interval in days (D) or hours (H), X, the number of doses. Some molecules as drawn cover several salts, stereoisomers or complexes of the source; a dose is that of the sample tested. Some entries were tested several times; their values stand side by side, smallest first. Where survival is the endpoint, this PubChem deposit counts one and a half times the control or more as active, and values a quarter to a half above the control carry no call in these data; other NCI protocols may use other cut-offs. Some T/C values carry the count of animals alive at the toxicity check (mostly the fifth day); where none is given, no animal had died by that day. Marks such as (2×) say how often a value occurs here.

Tested on: P388 leukemia ip, CD2F1 mice, survival T/C
Assay: NCI In Vivo Anticancer Drug Screen. Data for tumor model P388 Leukemia (intraperitoneal) in CD2F1 (CDF1) mice
Conditions: T/C endpoint: median survival time, higher T/C = longer survival
[1] = dose: 240.0 mg/kg/injection, schedule: Q01DX005 (ip), vehicle: saline with Tween-80
[2] = dose: 200.0 mg/kg/injection, schedule: Q01DX009 (ip), vehicle: saline with Tween-80

Compound: CCNc1ncnc2c1cnn2C
- survivor count (dose: 100.0 mg/kg/injection, schedule: Q01DX009 (ip), vehicle: saline sonified): 6 of 6
- survivor count (dose: 200.0 mg/kg/injection, schedule: Q01DX009 (ip), vehicle: saline sonified): 0 of 6
- survivor count (dose: 400.0 mg/kg/injection, schedule: Q04DX003 (ip), vehicle: saline sonified): 3 of 6

Compound: O=S(=O)(N/N=C/c1ccccc1)c1ccccc1
- survivor count (dose: 400.0 mg/kg/injection, schedule: Q01DX009 (ip), vehicle: Klucel (hydroxypropylcellulose) (HPC)): 2 of 6

Compound: O=c1nc(-c2ccccc2)sc(=O)[nH]1
- survivor count (dose: 200.0 mg/kg/injection, schedule: Q01DX009 (ip), vehicle: Klucel (hydroxypropylcellulose) (HPC)): 3 of 6

Compound: CC(=O)OCCOCNC(=S)N/N=C/c1ccccn1
- T/C (dose: 120.0 mg/kg/injection, schedule: Q01DX005 (ip), vehicle: saline with Tween-80): 131 % of control
- survivor count [1]: 5 of 6

Compound: NC(CCC(=O)O)C(=O)Nc1ccc(N(CCCl)CCCl)cc1 (stereo unspecified)
- T/C (dose: 6.25 mg/kg/injection, schedule: Q01DX009 (ip), vehicle: saline with Tween-80): 138 % of control
- survivor count (dose: 25.0 mg/kg/injection, schedule: Q01DX009 (ip), vehicle: saline with Tween-80): 4 of 6
- survivor count (dose: 50.0 mg/kg/injection, schedule: Q01DX009 (ip), vehicle: saline with Tween-80): 1 of 6
- survivor count (dose: 100.0 mg/kg/injection, schedule: Q01DX009 (ip), vehicle: saline with Tween-80): 0 of 6
- survivor count [2]: 0 of 6

Compound: O=C(Nc1cccc(Cl)c1)OCCCc1ccncc1
- survivor count [2]: 6 of 6

Compound: O=C(Nc1ccc(CCC2=NCCCN2)cc1)c1ccc(C(=O)Nc2ccc(CCC3=NCCCN3)cc2)cc1
- T/C (dose: 50.0 mg/kg/injection, schedule: Q01DX005 (ip), vehicle: saline with Tween-80): 125 % of control [5 of 6 alive]
- T/C (dose: 100.0 mg/kg/injection, schedule: Q01DX005 (ip), vehicle: saline with Tween-80): 133 and 148 % of control

Compound: CC(C)CC1=C(C(=O)c2ccoc2)CC(C)C1 (stereo unspecified)
- survivor count (dose: 30.0 mg/kg/injection, schedule: Q01DX005 (ip), vehicle: Klucel (hydroxypropylcellulose) (HPC)): 6 of 6

Compound: CC1=CC(C/C(C)=C/COc2ccc3ccc(=O)oc3c2)OC1=O (stereo unspecified)
- survivor count (dose: 100.0 mg/kg/injection, schedule: Q01DX005 (ip), vehicle: Klucel (hydroxypropylcellulose) (HPC)): 6 of 6
- survivor count (dose: 200.0 mg/kg/injection, schedule: Q01DX005 (ip), vehicle: Klucel (hydroxypropylcellulose) (HPC)): 6 of 6

Compound: C=C[Si]12OCCN(CCO1)CCO2
- T/C (dose: 50.0 mg/kg/injection, schedule: Q01DX009 (ip), vehicle: Klucel (hydroxypropylcellulose) (HPC)): 126 % of control

Compound: C=CC[Si](CC=C)(c1ccccc1)c1ccccc1
- T/C (dose: 12.5 mg/kg/injection, schedule: Q01DX009 (ip), vehicle: saline): 90, 94 [5 of 6 alive] (2×), 98 % of control
- T/C (dose: 25.0 mg/kg/injection, schedule: Q01DX009 (ip), vehicle: saline): 100, 103, 104, 126 % of control
- T/C (dose: 50.0 mg/kg/injection, schedule: Q01DX009 (ip), vehicle: saline): 94, 96 [5 of 6 alive], 97, 98, 159 % of control
- survivor count (dose: 100.0 mg/kg/injection, schedule: Q01DX009 (ip), vehicle: saline): 6 of 6

Compound: COc1ccc(Cc2nnc(NN)[nH]c2=O)cc1OC
- survivor count [1]: 1 of 6

Compound: N#CC(/C=C/c1ccccc1)(NO)Nc1cccc(Cl)c1 (stereo unspecified)
- survivor count [1]: 1 of 6

Compound: C#CCN(Cc1ccc2nc(N)[nH]c(=O)c2c1)c1ccc(C(=O)NC(CCC(=O)O)C(=O)O)cc1 (stereo unspecified)
- T/C (dose: 30.0 mg/kg/injection, schedule: Q01DX005 (ip), vehicle: sodium bicarbonate): 128 % of control
- T/C (dose: 60.0 mg/kg/injection, schedule: Q01DX005 (ip), vehicle: sodium bicarbonate): 127 % of control
- T/C (dose: 100.0 mg/kg/injection, schedule: Q01DX005 (ip), vehicle: alkali diluted with water, evaluated on day 30): 147 % of control
- T/C (dose: 100.0 mg/kg/injection, schedule: Q01DX005 (ip), vehicle: alkali diluted with water, evaluated on day 45): 138 % of control
- T/C (dose: 100.0 mg/kg/injection, schedule: Q01DX005 (ip), vehicle: water, evaluated on day 20): 132 % of control
- T/C (dose: 100.0 mg/kg/injection, schedule: Q01DX005 (ip), vehicle: water, evaluated on day 30): 130 % of control
- T/C (dose: 120.0 mg/kg/injection, schedule: Q01DX005 (ip), vehicle: sodium bicarbonate): 145 % of control
- T/C (dose: 125.0 mg/kg/injection, schedule: Q01DX005 (ip), vehicle: alkali diluted with water, evaluated on day 30): 144 % of control
- T/C (dose: 125.0 mg/kg/injection, schedule: Q01DX005 (ip), vehicle: alkali diluted with water, evaluated on day 45): 135 % of control
- survivor count (dose: 200.0 mg/kg/injection, schedule: Q01DX005 (ip), vehicle: water): 2 of 6 and 5 of 6

Compound: CCOC(=O)c1c(O)c(C)c(=O)n2c1[nH]c1cc(C)c(C)cc12
- survivor count [1]: 6 of 6
